Experimental data: PubChem BioAssay AID2685 (National Center for Advancing Translational Sciences (NCATS), 2010)
The list shows a part of the results. These are further read-outs of the screen, such as a control signal, another cell line or another target. No call is given for them. The list favours compounds with an active or inconclusive main result. The note in brackets gives the kind of curve behind each potency; many fits are weak.

Assay: qHTS Assay for Lipid Storage Modulators in Drosophila S3 Cells;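 as to cell number change: cells counted by Cell Tracker Red CMTPX staining in the red channel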
Conditions: BODIPY lipid droplet fluorescence, 18-24 h; for cell number change: measured here: cell count max response, cells fed with added oleic acid
In short: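 Laser-scanning cytometry quantifies lipid droplet accumulation (500–530 nm total intensity; droplet/cell object ratio) in oleic acid-fed (400 uM added) Drosophila S3 cells treated with a concentration series. 20 uM Triacsin C defined 100% inhibition.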

[1] = measured here: lipid fluorescence (Fed channel) AC50, cells fed with added oleic acid
[2] = measured here: cell number channel AC50, cells fed with added oleic acid

Cc1cc(C(=O)NCC2CCCO2)n(-c2ccccc2)n1 (configuration not stated)
cell number change: -24.4% | AC50 [1]: 6.51 µM [falling, single point]

Cc1ccc(Sc2ncccc2C(=O)NCc2cc([N+](=O)[O-])ccc2O)c(C)c1
cell number change: 61.1% | AC50 [2]: 32.6 µM [rising, single point] | AC50 [1]: 29.1 µM [rising, single point]

CCN1C(=O)[C@H]2[C@@H](c3ccc(C)cc3)N3C(=O)N(c4cccc(Br)c4)C(=O)[C@@]3(Cc3ccccc3)[C@H]2C1=O
cell number change: 24.8% | AC50 [1]: 2.06 µM [rising, single point]

CC(C)CCOc1cccc(OCC(=O)Nc2ccncc2)c1
cell number change: -14.1% | AC50 [1]: 2.06 µM [falling, partial curve]

CCC(=O)NC(C)c1nc2ccccc2n1C (configuration not stated)
cell number change: -205% | AC50 [2]: 29.1 µM [falling, partial curve] | AC50 [1]: 25.9 µM [falling, partial curve]

O=C(C1=C(O)C(=O)N(CC2CCCO2)C1c1ccccc1F)c1ccco1 (configuration not stated)
cell number change: -17.1% | AC50 [2]: 0.0366 µM [falling, full curve, poor fit]

O=C(COC(=O)/C=C/C(=O)N1CCN(c2ccccc2)CC1)NCc1ccc(F)cc1
cell number change: -3.53% | AC50 [2]: 6.51 µM [falling, single point]

O=C(Nc1ccc(NC(=O)c2ccccc2F)cc1)c1cccs1
cell number change: -17.4% | AC50 [2]: 6.51 µM [falling, partial curve] | AC50 [1]: 0.92 µM [falling, full curve, poor fit]

Nc1ccc(-c2ccc(N)c([N+](=O)[O-])c2)cc1[N+](=O)[O-]
AC50 [1]: 6.51 µM [rising, single point]

COc1cc(C)nc(NC(=O)COc2ccc(Cl)cc2C)n1
AC50 [2]: 0.146 µM [rising, full curve, poor fit] | AC50 [1]: 0.231 µM [rising, full curve, poor fit]

Cc1ccc(OCCC(=O)OCC(=O)Nc2ccc(C)cc2Cl)cc1
cell number change: -36% | AC50 [2]: 23.1 µM [falling, partial curve, poor fit] | AC50 [1]: 4.11 µM [rising, single point]

CCN(CC(=O)Nc1ccc(NC(C)=O)cc1)C(=O)c1ccccc1SCC(=O)N1CCCC1
cell number change: -21.9% | AC50 [1]: 11.6 µM [falling, partial curve]

O=C(Cn1ncc2c([nH]c3ccccc32)c1=O)NCCc1ccccc1
cell number change: 41.2% | AC50 [2]: 25.9 µM [rising, single point]

CCCCn1c(=O)c(CCC(=O)OCC(=O)NC(C)c2ccccc2)nc2ccccc21 (configuration not stated)
cell number change: 122%

COC(=O)c1cc(NC(=O)Cc2coc3cc(OC)ccc23)cc(C(=O)OC)c1
cell number change: -29.1% | AC50 [1]: 32.6 µM [falling, single point]

CN(C1CCCCC1)S(=O)(=O)c1ccc2c(c1)c(=O)c(C(=O)N1CCc3ccccc3C1)cn2C
AC50 [2]: 2.31 µM [rising, single point]

CCOC(=O)Cc1csc(NC(=S)NC(=O)c2ccccc2Br)n1
cell number change: -21.1%

Cc1cc(C)nc(SCc2cn3ccccc3n2)n1
cell number change: 30.6% | AC50 [2]: 29.1 µM [rising, single point]

Cc1noc(C)c1COC(=O)CNC(=O)c1ccc(Cl)cc1
cell number change: 47.2%

Cc1cc(NC(=O)CSCc2nc(-c3cccc(Cl)c3)oc2C)no1
cell number change: 15.6% | AC50 [1]: 7.31 µM [rising, partial curve]

Cc1ccc(C(=O)Nc2ncccc2O)cc1S(=O)(=O)N1CCCCC1
cell number change: 125% | AC50 [2]: 29.1 µM [rising, single point]

CCc1c(C)sc(NC(=S)Nc2cccnc2)c1C(=O)OC
cell number change: -30% | AC50 [2]: 32.6 µM [falling, single point] | AC50 [1]: 29.1 µM [falling, single point]

CS(=O)(=O)N(CC(=O)NCc1ccco1)c1cccc([N+](=O)[O-])c1
cell number change: -4.46% | AC50 [1]: 6.51 µM [falling, single point]

CCC(=O)Nc1cccc(NC(=S)NC(=O)c2ccc(Cl)cc2Cl)c1
cell number change: -1.71% | AC50 [1]: 1.16 µM [falling, single point]

Brc1cccc(CNCC2CCCO2)c1 (configuration not stated)
cell number change: -2.05%

CCOc1ccc(NC(=O)CN(C)CC(=O)NC(C)c2ccccc2)cc1OCC (configuration not stated)
cell number change: -44.2% | AC50 [2]: 2.91 µM [rising, single point]

FC(F)(F)c1cc(-c2ccc(Cl)cc2)nc2ncnn12
cell number change: 112% | AC50 [2]: 6.51 µM [rising, partial curve, poor fit] | AC50 [1]: 20.6 µM [rising, partial curve]

Cc1cc(S(=O)(=O)NCc2ccccc2)ccc1OCC(=O)N1CCOCC1
cell number change: 112% | AC50 [1]: 0.146 µM [falling, full curve, poor fit]

c1ccc(C(c2ccccc2)N2CCN(c3nc4ccccc4n4cnnc34)CC2)cc1
cell number change: -38.2% | AC50 [2]: 14.6 µM [falling, partial curve, poor fit] | AC50 [1]: 6.51 µM [falling, partial curve]

O=c1oc2ccccc2c2c1SC(C(F)(F)F)C2 (configuration not stated)
cell number change: 19.3% | AC50 [1]: 1.3 µM [rising, full curve]

COc1ccc(/C=N/NC(=O)c2csc(-n3nc(C)cc3C(F)(F)F)n2)cc1
AC50 [2]: 2.06 µM [rising, partial curve] | AC50 [1]: 0.461 µM [rising, single point]

Cn1ncc(Br)c1NC(=O)CSc1ccc(Cl)cc1
cell number change: 3.67% | AC50 [1]: 29.1 µM [falling, single point]

Cc1ccc(C(=O)Nc2ccccn2)cc1S(=O)(=O)N1CCOCC1
cell number change: 7.46%

Cc1cc(C)c(S(=O)(=O)N2CCOC2CNC(=O)C(=O)NCCCN2CCCC2=O)c(C)c1 (configuration not stated)
cell number change: -9.49% | AC50 [1]: 1.64 µM [falling, partial curve]

O=C(C1CCN(S(=O)(=O)c2ccccc2)CC1)N1CCc2ccccc21
cell number change: 9.19%

Nc1c(C(=O)Nc2cccc(F)c2)nnn1-c1ccc2c(c1)OCCO2
cell number change: 17.2%

Nc1cccn2c(-c3ccc(Cl)c(Cl)c3)cnc12
cell number change: 64.7%

COCc1ccc(C(=O)NC2CC(C)(C)Cc3c2cnn3-c2ccc(C)cc2)o1 (configuration not stated)
AC50 [1]: 6.51 µM [falling, single point]
